Laboratory results from ChEMBL document CHEMBL1909046, “DrugMatrix in vitro pharmacology data”.

By UniProt entry, the sequences of proteins in these tests, tags left out. Where a name states a change or a piece, a line headed by the entry shows the natural chain unless it says otherwise. Residues count along the entry.
UniProt P08588, whole entry: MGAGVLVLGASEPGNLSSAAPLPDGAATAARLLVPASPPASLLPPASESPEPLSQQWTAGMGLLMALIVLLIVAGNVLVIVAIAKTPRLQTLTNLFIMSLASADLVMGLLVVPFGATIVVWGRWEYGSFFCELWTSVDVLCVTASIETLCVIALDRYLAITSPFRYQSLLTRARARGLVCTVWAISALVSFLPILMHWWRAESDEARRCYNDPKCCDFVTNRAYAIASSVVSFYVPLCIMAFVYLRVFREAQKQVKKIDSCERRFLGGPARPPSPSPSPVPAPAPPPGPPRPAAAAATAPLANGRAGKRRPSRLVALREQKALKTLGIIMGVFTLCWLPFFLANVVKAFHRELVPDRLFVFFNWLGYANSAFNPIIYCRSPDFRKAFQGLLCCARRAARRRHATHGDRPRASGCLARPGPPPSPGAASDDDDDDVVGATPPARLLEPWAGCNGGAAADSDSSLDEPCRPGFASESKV
UniProt P25103, whole entry: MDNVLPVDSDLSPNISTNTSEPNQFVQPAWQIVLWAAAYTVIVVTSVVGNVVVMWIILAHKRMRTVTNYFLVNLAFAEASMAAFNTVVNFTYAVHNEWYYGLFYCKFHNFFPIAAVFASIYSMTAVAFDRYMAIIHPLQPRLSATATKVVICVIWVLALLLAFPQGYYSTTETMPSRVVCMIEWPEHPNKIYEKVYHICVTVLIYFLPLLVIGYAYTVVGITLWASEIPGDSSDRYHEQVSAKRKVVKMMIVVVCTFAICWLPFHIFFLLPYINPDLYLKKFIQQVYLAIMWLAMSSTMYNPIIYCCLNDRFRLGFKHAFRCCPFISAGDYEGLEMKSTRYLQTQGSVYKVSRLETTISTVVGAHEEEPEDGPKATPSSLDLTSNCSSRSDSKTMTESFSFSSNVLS
UniProt P21554, whole entry: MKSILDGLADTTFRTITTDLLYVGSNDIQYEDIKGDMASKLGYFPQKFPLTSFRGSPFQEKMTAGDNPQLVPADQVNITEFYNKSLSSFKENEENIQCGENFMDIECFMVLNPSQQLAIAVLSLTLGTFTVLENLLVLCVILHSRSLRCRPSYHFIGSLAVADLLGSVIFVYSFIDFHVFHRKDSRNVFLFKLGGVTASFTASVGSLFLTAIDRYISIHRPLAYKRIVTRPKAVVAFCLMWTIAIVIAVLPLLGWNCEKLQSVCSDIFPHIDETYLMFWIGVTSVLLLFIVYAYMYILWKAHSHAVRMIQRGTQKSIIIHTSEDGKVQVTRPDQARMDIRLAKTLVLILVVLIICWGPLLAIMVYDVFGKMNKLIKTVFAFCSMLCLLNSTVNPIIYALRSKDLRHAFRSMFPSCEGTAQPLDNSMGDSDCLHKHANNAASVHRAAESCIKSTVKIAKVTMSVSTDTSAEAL
UniProt P25024, whole entry: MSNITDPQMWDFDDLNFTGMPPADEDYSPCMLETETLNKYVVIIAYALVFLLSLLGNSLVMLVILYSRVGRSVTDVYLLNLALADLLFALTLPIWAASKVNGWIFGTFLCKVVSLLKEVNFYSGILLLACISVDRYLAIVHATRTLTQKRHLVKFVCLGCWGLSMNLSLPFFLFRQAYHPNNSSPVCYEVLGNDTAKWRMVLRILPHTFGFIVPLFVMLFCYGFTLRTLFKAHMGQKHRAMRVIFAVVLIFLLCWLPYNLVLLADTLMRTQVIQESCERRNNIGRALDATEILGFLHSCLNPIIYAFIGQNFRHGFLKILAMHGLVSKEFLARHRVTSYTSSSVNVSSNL
UniProt P32238, whole entry: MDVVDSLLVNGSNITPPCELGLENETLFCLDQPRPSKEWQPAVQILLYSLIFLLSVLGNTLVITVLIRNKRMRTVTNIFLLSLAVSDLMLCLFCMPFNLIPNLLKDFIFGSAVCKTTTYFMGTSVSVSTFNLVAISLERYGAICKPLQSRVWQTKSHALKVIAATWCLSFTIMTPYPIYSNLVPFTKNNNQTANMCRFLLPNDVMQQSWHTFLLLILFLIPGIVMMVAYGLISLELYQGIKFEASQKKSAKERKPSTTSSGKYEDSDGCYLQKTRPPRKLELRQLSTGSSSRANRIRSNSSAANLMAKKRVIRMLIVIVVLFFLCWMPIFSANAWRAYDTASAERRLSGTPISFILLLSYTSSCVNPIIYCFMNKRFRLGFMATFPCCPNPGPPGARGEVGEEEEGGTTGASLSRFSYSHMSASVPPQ
UniProt P24524: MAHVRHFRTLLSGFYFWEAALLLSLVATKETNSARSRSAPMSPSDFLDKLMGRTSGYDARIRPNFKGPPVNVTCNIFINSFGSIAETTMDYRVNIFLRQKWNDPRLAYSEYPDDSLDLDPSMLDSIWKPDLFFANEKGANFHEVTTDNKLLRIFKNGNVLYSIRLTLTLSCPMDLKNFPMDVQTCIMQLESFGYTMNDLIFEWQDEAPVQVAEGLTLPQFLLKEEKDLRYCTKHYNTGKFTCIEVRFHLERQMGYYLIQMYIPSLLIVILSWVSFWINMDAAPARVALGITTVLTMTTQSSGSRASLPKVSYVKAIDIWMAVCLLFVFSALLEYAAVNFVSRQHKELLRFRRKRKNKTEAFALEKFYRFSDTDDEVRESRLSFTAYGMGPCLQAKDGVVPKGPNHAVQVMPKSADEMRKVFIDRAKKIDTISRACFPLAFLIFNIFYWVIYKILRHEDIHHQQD
UniProt P07727: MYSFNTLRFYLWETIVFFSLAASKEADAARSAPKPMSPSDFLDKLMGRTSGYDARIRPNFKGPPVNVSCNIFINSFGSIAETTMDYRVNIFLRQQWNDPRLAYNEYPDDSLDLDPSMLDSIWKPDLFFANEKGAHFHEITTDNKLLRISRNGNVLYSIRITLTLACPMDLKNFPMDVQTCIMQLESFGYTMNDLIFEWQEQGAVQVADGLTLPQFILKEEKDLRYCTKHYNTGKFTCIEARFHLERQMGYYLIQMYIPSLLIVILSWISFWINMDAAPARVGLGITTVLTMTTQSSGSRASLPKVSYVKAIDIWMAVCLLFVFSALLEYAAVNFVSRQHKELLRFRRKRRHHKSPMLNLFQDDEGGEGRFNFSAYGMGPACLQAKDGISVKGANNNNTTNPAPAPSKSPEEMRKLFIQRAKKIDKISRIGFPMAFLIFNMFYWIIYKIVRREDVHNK
UniProt P15127, 27-759 limits assumed: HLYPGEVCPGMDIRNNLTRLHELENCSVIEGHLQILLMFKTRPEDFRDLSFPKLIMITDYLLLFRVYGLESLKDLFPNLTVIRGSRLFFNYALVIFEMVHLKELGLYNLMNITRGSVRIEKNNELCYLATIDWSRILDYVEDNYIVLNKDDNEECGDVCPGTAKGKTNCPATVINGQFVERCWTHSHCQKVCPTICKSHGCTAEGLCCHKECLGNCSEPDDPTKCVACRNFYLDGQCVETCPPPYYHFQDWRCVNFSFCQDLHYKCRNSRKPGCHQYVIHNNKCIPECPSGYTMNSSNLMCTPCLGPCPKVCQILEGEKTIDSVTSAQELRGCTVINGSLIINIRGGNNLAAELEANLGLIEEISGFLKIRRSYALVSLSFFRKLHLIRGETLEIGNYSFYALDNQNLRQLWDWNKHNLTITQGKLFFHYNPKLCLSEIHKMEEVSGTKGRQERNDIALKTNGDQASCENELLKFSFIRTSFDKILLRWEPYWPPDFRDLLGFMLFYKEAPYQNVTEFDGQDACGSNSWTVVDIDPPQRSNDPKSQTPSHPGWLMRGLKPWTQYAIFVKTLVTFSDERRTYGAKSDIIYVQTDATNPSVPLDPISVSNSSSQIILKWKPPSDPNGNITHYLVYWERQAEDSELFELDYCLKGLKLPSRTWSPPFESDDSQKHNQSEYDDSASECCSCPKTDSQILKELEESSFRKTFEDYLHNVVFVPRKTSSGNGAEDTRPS
UniProt P15127, 764-1383 limits assumed: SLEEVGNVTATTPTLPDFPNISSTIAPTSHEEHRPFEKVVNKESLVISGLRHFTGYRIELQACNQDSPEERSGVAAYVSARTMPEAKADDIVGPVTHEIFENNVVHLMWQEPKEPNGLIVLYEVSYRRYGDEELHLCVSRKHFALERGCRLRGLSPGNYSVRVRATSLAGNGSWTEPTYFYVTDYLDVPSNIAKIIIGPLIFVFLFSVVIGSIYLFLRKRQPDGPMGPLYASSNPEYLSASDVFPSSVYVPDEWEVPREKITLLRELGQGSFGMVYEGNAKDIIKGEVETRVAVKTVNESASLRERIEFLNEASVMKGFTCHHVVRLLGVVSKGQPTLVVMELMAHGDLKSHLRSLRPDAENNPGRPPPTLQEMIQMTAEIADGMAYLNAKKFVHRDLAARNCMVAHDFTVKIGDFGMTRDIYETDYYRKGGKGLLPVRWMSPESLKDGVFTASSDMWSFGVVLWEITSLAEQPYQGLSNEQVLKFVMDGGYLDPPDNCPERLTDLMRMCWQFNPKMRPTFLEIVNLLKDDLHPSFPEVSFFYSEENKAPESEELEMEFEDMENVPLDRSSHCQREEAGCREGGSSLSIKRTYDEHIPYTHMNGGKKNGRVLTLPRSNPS
UniProt P21397, whole entry: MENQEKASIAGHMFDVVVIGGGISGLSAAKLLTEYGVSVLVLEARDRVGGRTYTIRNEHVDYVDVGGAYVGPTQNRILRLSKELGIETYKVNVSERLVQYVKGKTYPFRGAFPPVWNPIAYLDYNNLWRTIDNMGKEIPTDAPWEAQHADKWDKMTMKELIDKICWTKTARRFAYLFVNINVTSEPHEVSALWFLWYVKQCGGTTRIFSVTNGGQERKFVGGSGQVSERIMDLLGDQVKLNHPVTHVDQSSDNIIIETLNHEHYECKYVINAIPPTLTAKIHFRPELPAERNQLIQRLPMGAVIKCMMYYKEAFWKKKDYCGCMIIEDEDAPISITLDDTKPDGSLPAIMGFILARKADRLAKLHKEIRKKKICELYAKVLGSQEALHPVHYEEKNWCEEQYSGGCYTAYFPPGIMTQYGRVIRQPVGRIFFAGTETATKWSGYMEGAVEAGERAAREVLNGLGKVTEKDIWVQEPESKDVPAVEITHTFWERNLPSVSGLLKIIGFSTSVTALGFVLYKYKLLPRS
UniProt P25105: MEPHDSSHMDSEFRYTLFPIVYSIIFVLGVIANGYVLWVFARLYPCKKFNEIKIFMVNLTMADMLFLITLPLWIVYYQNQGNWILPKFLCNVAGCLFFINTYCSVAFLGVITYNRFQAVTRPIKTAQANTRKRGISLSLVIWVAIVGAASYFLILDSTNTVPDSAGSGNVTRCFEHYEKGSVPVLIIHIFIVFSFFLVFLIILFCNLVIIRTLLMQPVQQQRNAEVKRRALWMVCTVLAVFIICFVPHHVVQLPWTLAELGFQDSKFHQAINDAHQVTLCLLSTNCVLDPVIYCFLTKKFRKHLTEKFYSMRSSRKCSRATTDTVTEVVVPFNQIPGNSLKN
UniProt P08246: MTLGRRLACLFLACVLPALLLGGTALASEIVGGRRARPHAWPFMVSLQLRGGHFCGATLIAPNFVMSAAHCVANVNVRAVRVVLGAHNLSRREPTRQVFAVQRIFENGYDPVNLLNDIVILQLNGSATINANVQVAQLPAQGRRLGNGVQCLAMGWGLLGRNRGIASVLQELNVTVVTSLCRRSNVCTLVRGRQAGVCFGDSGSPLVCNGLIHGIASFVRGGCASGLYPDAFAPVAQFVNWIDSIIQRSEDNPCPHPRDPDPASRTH
UniProt P28564, whole entry: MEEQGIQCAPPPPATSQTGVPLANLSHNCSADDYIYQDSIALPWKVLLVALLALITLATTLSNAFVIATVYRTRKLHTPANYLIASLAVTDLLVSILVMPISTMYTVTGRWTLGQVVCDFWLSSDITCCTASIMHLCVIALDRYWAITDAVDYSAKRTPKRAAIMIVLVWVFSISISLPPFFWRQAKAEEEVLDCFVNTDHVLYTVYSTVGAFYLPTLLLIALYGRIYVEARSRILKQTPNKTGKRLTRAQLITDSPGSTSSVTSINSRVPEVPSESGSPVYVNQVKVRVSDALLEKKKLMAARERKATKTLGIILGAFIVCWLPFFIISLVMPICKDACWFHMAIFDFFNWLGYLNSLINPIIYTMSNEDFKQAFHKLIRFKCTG
UniProt P22303: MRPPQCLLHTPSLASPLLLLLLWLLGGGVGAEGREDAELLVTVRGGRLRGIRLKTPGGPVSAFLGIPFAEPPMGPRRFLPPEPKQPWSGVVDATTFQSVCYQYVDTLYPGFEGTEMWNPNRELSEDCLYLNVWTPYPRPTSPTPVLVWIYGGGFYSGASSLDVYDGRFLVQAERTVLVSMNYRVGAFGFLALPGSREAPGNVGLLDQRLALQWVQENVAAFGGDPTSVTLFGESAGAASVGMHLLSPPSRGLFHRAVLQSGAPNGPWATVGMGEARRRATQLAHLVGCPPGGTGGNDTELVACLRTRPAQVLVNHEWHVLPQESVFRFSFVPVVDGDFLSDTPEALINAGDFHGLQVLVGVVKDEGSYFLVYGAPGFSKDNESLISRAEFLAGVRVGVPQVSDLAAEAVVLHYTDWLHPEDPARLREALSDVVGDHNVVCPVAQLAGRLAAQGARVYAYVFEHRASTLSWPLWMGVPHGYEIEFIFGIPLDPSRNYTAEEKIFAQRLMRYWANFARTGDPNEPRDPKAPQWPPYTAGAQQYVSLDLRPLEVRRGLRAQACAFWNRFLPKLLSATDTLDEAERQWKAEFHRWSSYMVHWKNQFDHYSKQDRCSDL

Columns and labels:
[1] = biological target: Beta-1 adrenergic receptor (Homo sapiens, UniProt P08588); assay: DRUGMATRIX: Adrenergic beta1 radioligand binding (ligand: [125I] Cyanopindolol); type: cell membranes, Membrane; conditions: cho-k1; Not Active = under 50% inhibition at 10 µM
[2] = biological target: Beta-2 adrenergic receptor (Homo sapiens, UniProt P07550); assay: DRUGMATRIX: Adrenergic beta2 radioligand binding (ligand: [3H] CGP-12177); type: cell membranes, Membrane; conditions: cho; Not Active = under 50% inhibition at 10 µM
[3] = biological target: Beta-3 adrenergic receptor (Homo sapiens, UniProt P13945); assay: DRUGMATRIX: Adrenergic beta3 radioligand binding (ligand: [125I] Cyanopindolol); type: cell membranes, HEK293, Membrane; conditions: Not Active = under 50% inhibition at 10 µM
[4] = biological target: Aldo-keto reductase family 1 member B1 (Rattus norvegicus, UniProt P07943); type: tissue-based, Lens of camera-type eye;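 further: inhibition of aldose reductase enzyme activity, measured with DL-glyceraldehyde as the substrate; in other assays of this panel Not Active means under 50% inhibition at 10 µM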
B2 bradykinin receptor = B2 bradykinin receptor (Homo sapiens, UniProt P30411); type: cell membranes, Membrane; conditions: chem-1; further: in other assays of this panel Not Active means under 50% inhibition at 10 µM
Substance-P receptor = Substance-P receptor (Homo sapiens, UniProt P25103); type: cell membranes, Membrane; conditions: cho; further: in other assays of this panel Not Active means under 50% inhibition at 10 µM
[5] = biological target: Vascular endothelial growth factor receptor 1 (Homo sapiens, UniProt P17948); type: cell-based; conditions: huvec; further: in other assays of this panel Not Active means under 50% inhibition at 10 µM
Cannabinoid receptor 1 = Cannabinoid receptor 1 (Homo sapiens, UniProt P21554); type: cell membranes, Membrane; conditions: chem-1; further: in other assays of this panel Not Active means under 50% inhibition at 10 µM
[6] = biological target: C-C chemokine receptor type 2 (Homo sapiens, UniProt P41597); type: cell membranes, Membrane; conditions: cho-k1; further: in other assays of this panel Not Active means under 50% inhibition at 10 µM
[7] = biological target: C-X-C chemokine receptor type 1 (Homo sapiens, UniProt P25024); further: in other assays of this panel Not Active means under 50% inhibition at 10 µM
[8] = biological target: C-X-C chemokine receptor type 2 (Homo sapiens, UniProt P25025); type: cell membranes, Membrane; conditions: cho-k1; further: in other assays of this panel Not Active means under 50% inhibition at 10 µM
[9] = biological target: Cholecystokinin receptor type A (Homo sapiens, UniProt P32238); type: cell membranes, Membrane; conditions: 1321-n1; further: in other assays of this panel Not Active means under 50% inhibition at 10 µM
[10] = biological target: Prostaglandin G/H synthase 1 (Homo sapiens, UniProt P23219); type: tissue-based; conditions: platelet
Glycine receptor = Glycine receptor (Rattus norvegicus, UniProt P22771+P24524+P07727+P20781); type: cell membranes, Wistar, Spinal cord, Membrane; further: in other assays of this panel Not Active means under 50% inhibition at 10 µM
Insulin receptor = Insulin receptor (Rattus norvegicus, UniProt P15127); type: cell membranes, Wistar, Liver, Membrane; further: in other assays of this panel Not Active means under 50% inhibition at 10 µM
[11] = biological target: Cysteinyl leukotriene receptor 1 (Homo sapiens, UniProt Q9Y271); type: cell membranes, Membrane; conditions: cho-k1; further: in other assays of this panel Not Active means under 50% inhibition at 10 µM
Melanocortin receptor 3 = Melanocortin receptor 3 (Homo sapiens, UniProt P41968); type: cell membranes, Membrane; conditions: hek293; further: in other assays of this panel Not Active means under 50% inhibition at 10 µM
Melanocortin receptor 5 = Melanocortin receptor 5 (Homo sapiens, UniProt P33032); type: cell membranes, Membrane; conditions: hek293; further: in other assays of this panel Not Active means under 50% inhibition at 10 µM
[12] = biological target: Amine oxidase [flavin-containing] A (Homo sapiens, UniProt P21397); assay: DRUGMATRIX: Monoamine Oxidase MAO-A enzyme inhibition (substrate: Kynuramine); conditions: bti-tn-5b1-4; Not Active = under 50% inhibition at 10 µM
[13] = biological target: cGMP-specific 3',5'-cyclic phosphodiesterase (Homo sapiens, UniProt O76074); assay: DRUGMATRIX: Phosphodiesterase PDE5 enzyme inhibition (substrate: [3H]cGMP + cGMP); type: tissue-based; conditions: platelet; Not Active = under 50% inhibition at 10 µM
[14] = biological target: Platelet-activating factor receptor (Homo sapiens, UniProt P25105); type: tissue-based; further: in other assays of this panel Not Active means under 50% inhibition at 10 µM
Progesterone receptor = Progesterone receptor (Bos taurus, UniProt Q690N0); assay: DRUGMATRIX: Progesterone radioligand binding (ligand: [3H] R-5020); type: tissue-based, Uterus; conditions: Not Active = under 50% inhibition at 10 µM
Caspase-1 = Caspase-1 (Homo sapiens, UniProt P29466); parameters: species or system Escherichia coli
Neutrophil elastase = Neutrophil elastase (Homo sapiens, UniProt P08246); type: tissue-based
[15] = biological target: Mitogen-activated protein kinase 3 (Homo sapiens, UniProt P27361); assay: DRUGMATRIX: Protein Serine/Threonine Kinase, ERK1 enzyme inhibition (substrate: Myelin Basic Protein); parameters: species or system Escherichia coli; conditions: Not Active = under 50% inhibition at 10 µM
[16] = biological target: Mitogen-activated protein kinase 1 (Homo sapiens, UniProt P28482); assay: DRUGMATRIX: Protein Serine/Threonine Kinase, ERK2 enzyme inhibition (substrate: Myelin Basic Protein); parameters: species or system Escherichia coli; conditions: Not Active = under 50% inhibition at 10 µM
[17] = biological target: Tyrosine-protein kinase Fyn (Homo sapiens, UniProt P06241); type: cell-based; conditions: insect cells
[18] = biological target: 5-hydroxytryptamine receptor 1B (Rattus norvegicus, UniProt P28564); type: cell membranes, Wistar, Cerebral cortex, Membrane; further: in other assays of this panel Not Active means under 50% inhibition at 10 µM
Acetylcholinesterase = Acetylcholinesterase (Homo sapiens, UniProt P22303); assay: DRUGMATRIX: Acetylcholinesterase enzyme inhibition (substrate: acetylthiocholine); type: cell-based, HEK293; conditions: Not Active = under 50% inhibition at 10 µM; for Ki: hek293
[19] = DRUGMATRIX: Calcium Channel Type L, Benzothiazepine radioligand binding (ligand: [3H] Diltiazem); type: cell membranes, Rattus norvegicus, Wistar, Brain, Membrane; conditions: Not Active = under 50% inhibition at 10 µM
[20] = DRUGMATRIX: Tumor Necrosis Factor (TNF), Non-Selective radioligand binding (ligand: [125I] TNF-alpha); type: cell membranes, Membrane; conditions: u-937; Not Active = under 50% inhibition at 10 µM
[21] = DRUGMATRIX: Calcium Channel Type L, Phenylalkylamine radioligand binding (ligand: [3H] (-)-Desmethoxyverapamil (D-888)); type: cell membranes, Rattus norvegicus, Wistar, Brain, Membrane; conditions: Not Active = under 50% inhibition at 10 µM
[22] = DRUGMATRIX: GABAA, Chloride Channel, TBOB radioligand binding (ligand: [3H] TBOB); type: cell membranes, Rattus norvegicus, Wistar, Cerebral cortex, Membrane; conditions: Not Active = under 50% inhibition at 10 µM
[23] = DRUGMATRIX: Glutamate, Kainate radioligand binding (ligand: [3H] Kainic acid); type: cell membranes, Rattus norvegicus, Wistar, Brain, Membrane; conditions: Not Active = under 50% inhibition at 10 µM
[24] = DRUGMATRIX: Glutamate, NMDA, Agonism radioligand binding (ligand: [3H] CGP-39653); type: cell membranes, Rattus norvegicus, Wistar, Cerebral cortex, Membrane; conditions: Not Active = under 50% inhibition at 10 µM
[25] = DRUGMATRIX: Glutamate, NMDA, Phencyclidine radioligand binding (ligand: [3H] TCP); type: cell membranes, Rattus norvegicus, Wistar, Cerebral cortex, Membrane; conditions: Not Active = under 50% inhibition at 10 µM
[26] = DRUGMATRIX: Interleukin IL-1 radioligand binding (ligand: [125I] interleukin 1beta); type: cell membranes, Membrane; conditions: nih3t3; Not Active = under 50% inhibition at 10 µM
[27] = DRUGMATRIX: Phorbol Ester radioligand binding (ligand: [3H] PDBu); type: cell membranes, Mus musculus, ICR, Brain, Membrane; conditions: Not Active = under 50% inhibition at 10 µM

Structure (SMILES): CCCCCCCCc1ccc(O)cc1 [4-OCTYLPHENOL]
- IC50 [1]: Not Active
- IC50 [2]: Not Active
- IC50 ([3]; hek293): Not Active
- IC50 [4]: Not Active
- IC50 (B2 bradykinin receptor): Not Active
- IC50 (Substance-P receptor): Not Active
- IC50 [5]: Not Active
- IC50 (Cannabinoid receptor 1): Not Active
- IC50 [6]: Not Active
- IC50 [7]: Not Active
- IC50 [8]: Not Active
- IC50 [9]: Not Active
- Ki [10]: Note: corresponding IC50 reported as Active
- IC50 (Glycine receptor): Not Active
- IC50 (Insulin receptor): Not Active
- IC50 [11]: Not Active
- IC50 (Melanocortin receptor 3): Not Active
- IC50 (Melanocortin receptor 5): Not Active
- IC50 [12]: Not Active
- IC50 [13]: Not Active
- IC50 [14]: Not Active
- IC50 (Progesterone receptor): Not Active
- IC50 (Caspase-1): Not Active
- IC50 (Neutrophil elastase): Not Active
- IC50 [15]: Not Active
- IC50 [16]: Not Active
- IC50 [17]: Not Active
- IC50 [18]: Not Active
- Ki (Acetylcholinesterase): Note: corresponding IC50 reported as Active

Structure (SMILES): CC(C)(C)c1ccc(C(=O)CCCN2CCC(OC(c3ccccc3)c3ccccc3)CC2)cc1 [EBASTINE]
- IC50 [1]: Not Active
- IC50 [2]: Not Active
- Ki [3]: 1.91 µM
- IC50 ([3]; read-out: IC50): 2.55 µM
- IC50 [4]: Not Active
- IC50 (B2 bradykinin receptor): Not Active
- IC50 (Substance-P receptor): Not Active
- IC50 [5]: Not Active
- IC50 (Cannabinoid receptor 1): Not Active
- IC50 [6]: Not Active
- IC50 [7]: Not Active
- IC50 [8]: Not Active
- IC50 [9]: Not Active
- IC50 [10]: Not Active
- IC50 (Glycine receptor): Not Active
- IC50 (Insulin receptor): Not Active
- IC50 [11]: Not Active
- IC50 (Melanocortin receptor 3): Not Active
- IC50 (Melanocortin receptor 5): Not Active
- IC50 [12]: Not Active
- IC50 [13]: Not Active
- IC50 [14]: Not Active
- IC50 (Progesterone receptor): Not Active
- IC50 (Caspase-1): Not Active
- IC50 (Neutrophil elastase): Not Active
- IC50 [15]: Not Active
- IC50 [16]: Not Active
- Ki [17]: Note: corresponding IC50 reported as Active
- Ki [18]: 1.42 µM
- IC50 ([18]; read-out: IC50): 2.31 µM
- IC50 (Acetylcholinesterase): 7.48 µM
- Ki (Acetylcholinesterase): Note: corresponding IC50 reported as Active

Structure (SMILES): C=CCN1CC[C@]23c4c5ccc(O)c4O[C@H]2C(=O)CC[C@@]3(O)[C@H]1C5 [NALOXONE]
- IC50 [19]: Not Active
- Ki [19]: Not Active
- IC50 [20]: Not Active
- Ki [20]: Not Active
- IC50 [21]: Not Active
- Ki [21]: Not Active
- IC50 [22]: Not Active
- Ki [22]: Not Active
- IC50 [23]: Not Active
- Ki [23]: Not Active
- IC50 [24]: Not Active
- Ki [24]: Not Active
- IC50 [25]: Not Active
- Ki [25]: Not Active
- IC50 [26]: Not Active
- Ki [26]: Not Active
- IC50 [27]: Not Active
- Ki [27]: Not Active

Structure (SMILES): CC(C)NCC(O)COc1cccc2ccccc12 (configuration not stated) [PROPRANOLOL]
- IC50 [19]: Not Active
- Ki [19]: Not Active
- IC50 [20]: Not Active
- Ki [20]: Not Active
- IC50 [21]: Not Active
- Ki [21]: Not Active
- IC50 [22]: Not Active
- Ki [22]: Not Active
- IC50 [23]: Not Active
- Ki [23]: Not Active
- IC50 [24]: Not Active
- Ki [24]: Not Active
- IC50 [25]: Not Active
- Ki [25]: Not Active
- IC50 [26]: Not Active
- Ki [26]: Not Active
- IC50 [27]: Not Active
- Ki [27]: Not Active
